From publication PMC8274477
Results are given in words; binding and its absence hold for the method and conditions named. Some binding calls cover weakened binding; strength is not graded here.

Chains of the proteins cited; added tags and fusions are not shown.
UniProt Q12926: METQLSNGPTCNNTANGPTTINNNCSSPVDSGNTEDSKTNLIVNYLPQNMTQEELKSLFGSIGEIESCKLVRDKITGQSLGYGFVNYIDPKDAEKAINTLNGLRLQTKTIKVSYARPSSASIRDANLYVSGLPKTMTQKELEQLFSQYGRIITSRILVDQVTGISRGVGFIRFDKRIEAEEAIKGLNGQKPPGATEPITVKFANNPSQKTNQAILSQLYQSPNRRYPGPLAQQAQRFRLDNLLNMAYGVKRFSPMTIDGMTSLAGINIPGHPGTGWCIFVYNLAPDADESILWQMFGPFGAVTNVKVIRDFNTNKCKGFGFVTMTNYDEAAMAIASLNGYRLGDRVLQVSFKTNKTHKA
UniProt Q04726: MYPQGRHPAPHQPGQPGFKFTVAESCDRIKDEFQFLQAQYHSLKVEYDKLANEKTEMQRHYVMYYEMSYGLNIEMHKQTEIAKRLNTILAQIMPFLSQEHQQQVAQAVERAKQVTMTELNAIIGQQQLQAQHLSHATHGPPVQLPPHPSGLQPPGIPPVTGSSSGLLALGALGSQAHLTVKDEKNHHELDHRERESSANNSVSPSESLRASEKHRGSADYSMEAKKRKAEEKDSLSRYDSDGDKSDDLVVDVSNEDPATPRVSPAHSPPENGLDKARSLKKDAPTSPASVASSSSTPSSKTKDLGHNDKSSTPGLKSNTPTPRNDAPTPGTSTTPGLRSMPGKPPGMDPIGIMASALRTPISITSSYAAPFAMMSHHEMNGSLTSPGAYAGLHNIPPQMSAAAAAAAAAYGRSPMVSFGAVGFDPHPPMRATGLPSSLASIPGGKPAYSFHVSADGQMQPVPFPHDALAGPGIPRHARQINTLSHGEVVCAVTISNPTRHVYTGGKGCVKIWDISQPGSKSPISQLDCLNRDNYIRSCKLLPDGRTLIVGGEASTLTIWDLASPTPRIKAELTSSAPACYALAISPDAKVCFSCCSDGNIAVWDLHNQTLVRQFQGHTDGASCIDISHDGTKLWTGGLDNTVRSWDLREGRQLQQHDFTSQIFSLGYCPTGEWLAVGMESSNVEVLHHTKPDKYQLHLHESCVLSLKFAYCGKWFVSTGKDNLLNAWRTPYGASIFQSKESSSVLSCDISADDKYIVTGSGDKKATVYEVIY
UniProt P47989: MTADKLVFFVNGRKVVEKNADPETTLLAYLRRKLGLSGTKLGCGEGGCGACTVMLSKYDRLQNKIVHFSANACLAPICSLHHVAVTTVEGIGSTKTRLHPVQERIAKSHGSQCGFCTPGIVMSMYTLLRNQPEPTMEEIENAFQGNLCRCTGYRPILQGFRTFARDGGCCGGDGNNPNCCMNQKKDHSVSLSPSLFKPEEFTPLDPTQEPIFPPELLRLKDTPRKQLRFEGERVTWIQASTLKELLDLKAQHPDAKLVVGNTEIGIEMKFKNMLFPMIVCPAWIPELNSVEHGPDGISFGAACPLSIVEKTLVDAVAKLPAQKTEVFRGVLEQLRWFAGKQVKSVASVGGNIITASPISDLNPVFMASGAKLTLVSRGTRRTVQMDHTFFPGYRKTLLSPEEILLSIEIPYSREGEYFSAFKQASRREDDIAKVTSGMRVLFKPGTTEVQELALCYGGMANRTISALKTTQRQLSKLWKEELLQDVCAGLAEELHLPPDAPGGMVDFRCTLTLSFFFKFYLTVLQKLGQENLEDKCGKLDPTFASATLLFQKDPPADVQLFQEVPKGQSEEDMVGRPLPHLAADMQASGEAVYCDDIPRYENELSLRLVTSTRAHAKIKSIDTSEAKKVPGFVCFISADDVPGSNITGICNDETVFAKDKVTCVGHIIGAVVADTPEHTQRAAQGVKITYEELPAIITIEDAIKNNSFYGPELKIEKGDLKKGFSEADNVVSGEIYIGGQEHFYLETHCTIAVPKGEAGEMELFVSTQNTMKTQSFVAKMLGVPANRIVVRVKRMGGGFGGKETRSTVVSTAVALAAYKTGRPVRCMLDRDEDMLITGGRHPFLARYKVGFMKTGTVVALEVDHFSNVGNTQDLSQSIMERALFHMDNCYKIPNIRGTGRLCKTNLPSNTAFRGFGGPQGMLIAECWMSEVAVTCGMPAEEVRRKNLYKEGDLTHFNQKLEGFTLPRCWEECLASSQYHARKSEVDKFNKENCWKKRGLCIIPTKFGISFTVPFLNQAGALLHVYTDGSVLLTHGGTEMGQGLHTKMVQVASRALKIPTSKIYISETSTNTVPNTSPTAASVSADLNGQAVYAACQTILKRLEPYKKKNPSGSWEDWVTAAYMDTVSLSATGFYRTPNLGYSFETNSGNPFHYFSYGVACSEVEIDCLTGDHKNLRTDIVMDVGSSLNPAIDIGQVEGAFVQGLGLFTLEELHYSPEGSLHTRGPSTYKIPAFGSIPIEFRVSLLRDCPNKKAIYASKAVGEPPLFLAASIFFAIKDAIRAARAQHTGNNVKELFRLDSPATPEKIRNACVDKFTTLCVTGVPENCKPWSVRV

Assays:
Experiment in all cases: peptide or protein array; HuProt human proteome microarray; 5 ug/5 ml biotin-labelled LUBAC or OTULIN in solution, 1 h at room temperature; Cy5-streptavidin, scanned at 635 nm; BSA as negative control; hits: Z-score >= 3 and I_(Mean_Ratio) >= 1.4; both purified
C1orf94 (human) = target: T1, C1orf94 (human) (UniProt Q6P1W5)
T1 sequence: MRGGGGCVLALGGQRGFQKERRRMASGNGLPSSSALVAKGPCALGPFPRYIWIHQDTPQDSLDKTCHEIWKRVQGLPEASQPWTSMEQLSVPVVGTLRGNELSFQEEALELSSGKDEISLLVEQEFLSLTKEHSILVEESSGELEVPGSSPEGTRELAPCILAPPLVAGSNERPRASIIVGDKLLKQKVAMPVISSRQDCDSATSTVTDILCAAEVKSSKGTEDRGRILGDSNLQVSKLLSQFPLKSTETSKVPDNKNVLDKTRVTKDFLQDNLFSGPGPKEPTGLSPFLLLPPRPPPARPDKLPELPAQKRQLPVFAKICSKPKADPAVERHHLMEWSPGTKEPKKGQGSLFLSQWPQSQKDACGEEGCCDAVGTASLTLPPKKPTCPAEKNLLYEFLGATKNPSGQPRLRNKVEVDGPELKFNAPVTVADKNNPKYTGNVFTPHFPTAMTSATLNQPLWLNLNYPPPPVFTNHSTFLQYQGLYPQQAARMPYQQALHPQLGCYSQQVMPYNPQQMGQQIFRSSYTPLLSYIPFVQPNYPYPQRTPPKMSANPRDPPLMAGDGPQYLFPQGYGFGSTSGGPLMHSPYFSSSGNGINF

ELAVL2 (human) = ELAVL2 (human) (UniProt Q12926)
IVD (human) = target: T2, IVD (human) (UniProt P26440)
T2 sequence: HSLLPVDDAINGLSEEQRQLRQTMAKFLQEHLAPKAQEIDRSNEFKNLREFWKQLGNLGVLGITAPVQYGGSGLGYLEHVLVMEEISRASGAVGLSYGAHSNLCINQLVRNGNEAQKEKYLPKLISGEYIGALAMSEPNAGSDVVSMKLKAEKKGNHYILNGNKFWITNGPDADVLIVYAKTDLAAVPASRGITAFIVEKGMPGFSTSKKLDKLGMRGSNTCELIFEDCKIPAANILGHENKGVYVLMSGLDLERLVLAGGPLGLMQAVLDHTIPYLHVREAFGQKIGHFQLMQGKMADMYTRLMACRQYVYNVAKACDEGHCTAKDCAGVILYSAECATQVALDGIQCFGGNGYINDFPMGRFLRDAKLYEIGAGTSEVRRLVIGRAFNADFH

POP7 (human) = target: T3, POP7 (human) (UniProt O75817)
T3 sequence: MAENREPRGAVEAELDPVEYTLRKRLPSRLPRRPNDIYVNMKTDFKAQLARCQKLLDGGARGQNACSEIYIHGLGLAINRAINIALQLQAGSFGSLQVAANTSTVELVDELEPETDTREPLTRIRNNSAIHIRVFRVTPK

TLE3 (human) = TLE3 (human) (UniProt Q04726)
XDH (human) = XDH (human) (UniProt P47989)
ZFYVE1 (human) = target: T4, ZFYVE1 (human) (UniProt Q9HBF4)
T4 sequence: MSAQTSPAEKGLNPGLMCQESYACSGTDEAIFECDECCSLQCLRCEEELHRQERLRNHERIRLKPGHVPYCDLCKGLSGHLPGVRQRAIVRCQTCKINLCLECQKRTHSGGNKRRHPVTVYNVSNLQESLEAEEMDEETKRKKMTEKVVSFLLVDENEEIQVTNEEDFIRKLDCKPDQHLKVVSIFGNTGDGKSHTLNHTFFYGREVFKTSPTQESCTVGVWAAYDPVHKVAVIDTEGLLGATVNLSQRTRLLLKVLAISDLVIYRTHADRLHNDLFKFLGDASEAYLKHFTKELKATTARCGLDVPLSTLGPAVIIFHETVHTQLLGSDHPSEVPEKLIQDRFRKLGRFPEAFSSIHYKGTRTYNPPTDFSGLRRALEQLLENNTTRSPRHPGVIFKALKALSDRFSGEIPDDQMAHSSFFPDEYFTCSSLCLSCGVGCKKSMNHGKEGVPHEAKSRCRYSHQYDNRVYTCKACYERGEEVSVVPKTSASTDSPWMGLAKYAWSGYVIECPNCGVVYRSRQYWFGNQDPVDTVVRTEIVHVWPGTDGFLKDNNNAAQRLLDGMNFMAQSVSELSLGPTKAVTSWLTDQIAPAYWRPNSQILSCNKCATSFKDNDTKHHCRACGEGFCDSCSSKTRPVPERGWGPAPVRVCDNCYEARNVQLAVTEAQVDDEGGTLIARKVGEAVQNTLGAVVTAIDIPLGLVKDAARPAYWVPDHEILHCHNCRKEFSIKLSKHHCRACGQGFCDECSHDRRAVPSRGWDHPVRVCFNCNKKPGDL

Measured: binding

linear ubiquitin chain assembly complex (LUBAC), purified as HIS-tagged HOIP with the subunit HOIL-1, biotin-labelled (from UniProt Q96EP0 1-1072; Q9BYM8 1-510)
binds: all assays above
